PubChem BioAssay AID652243 | Drosophila RNAi Screening Center, 2013
Purpose: 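Fly regulators of androgen-dependent reporter output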 (primary screen). Cells: Drosophila S2R+ cells. Reagents: long dsRNA against Drosophila genes. Duration: 72 h (48 h, then 24 h hormone). Conditions: synthetic androgen R1881 at 10 nM for 24 h. Detection: 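Firefly light from an androgen-responsive reporter and Renilla control light per well, raw and unnormalised, for each of two replicates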. Reading the numbers: firefly reporter light: higher = more light from androgen-responsive reporter; Renilla control light: higher = more constitutive control signal (cell number, transfection). Rule for the call: 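Across duplicate plates, a knock-down whose log firefly/Renilla ratio shifted a set fold down or up from the GFP/LacZ control mean was a hit; the downward cut appears as both 1.5 and 3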. Meaning of the calls: active = hit: reporter lowered or raised; inactive = no hit.
The screen tested about 24,000 reagents; shown is an unselected part of those with a known target gene and a result. Of all reagents, 246 (1%) got an active call. 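Plates not normalised; calls are printed but the firefly/Renilla ratio behind them is not deposited; fold cut for lowering reported inconsistently.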 Raw values vary from plate to plate and are shown uncorrected. Names joined by + are all predicted targets of the reagent. Reagent sequences are not shown. The record does not give: the amount of reagent.

After knock-down of CG8414 [DRSC07168], the screen gave firefly reporter light, replicate 1 = 53847; firefly reporter light, replicate 2 = 42989; Renilla control light, replicate 1 = 6.54e5; Renilla control light, replicate 2 = 6.54e5; inactive. CG18675 [DRSC08536] scored firefly reporter light, replicate 1 = 1.01e5; firefly reporter light, replicate 2 = 1.18e5; Renilla control light, replicate 1 = 1.38e6; Renilla control light, replicate 2 = 1.35e6; inactive. With knock-down of Tap42 [DRSC02967], the screen gave firefly reporter light, replicate 1 = 1.51e5; firefly reporter light, replicate 2 = 1.91e5; Renilla control light, replicate 1 = 9.52e5; Renilla control light, replicate 2 = 1.24e6; inactive. Against Tap42 [DRSC24168] the deposit lists firefly reporter light, replicate 1 = 1.08e6; firefly reporter light, replicate 2 = 7.53e5; Renilla control light, replicate 1 = 9.58e5; Renilla control light, replicate 2 = 9.29e5; inactive. With knock-down of CG11034 [DRSC02121] the results were firefly reporter light, replicate 1 = 1.81e5; firefly reporter light, replicate 2 = 1.67e5; Renilla control light, replicate 1 = 1.92e6; Renilla control light, replicate 2 = 1.98e6; inactive. With knock-down of CG11034 [DRSC02122], the screen gave firefly reporter light, replicate 1 = 83463; firefly reporter light, replicate 2 = 92216; Renilla control light, replicate 1 = 8.41e5; Renilla control light, replicate 2 = 7.12e5; inactive.

For Nplp2 [DRSC09824], the values are firefly reporter light, replicate 1 = 1.64e5; firefly reporter light, replicate 2 = 2.33e5; Renilla control light, replicate 1 = 1.64e6; Renilla control light, replicate 2 = 1.39e6; inactive. After knock-down of CG14315 [DRSC14794] the results were firefly reporter light, replicate 1 = 1.31e5; firefly reporter light, replicate 2 = 1.31e5; Renilla control light, replicate 1 = 1.13e6; Renilla control light, replicate 2 = 1.31e6; inactive. With knock-down of CG10911 [DRSC06008] the results were firefly reporter light, replicate 1 = 63698; firefly reporter light, replicate 2 = 93449; Renilla control light, replicate 1 = 1.46e6; Renilla control light, replicate 2 = 1.46e6; inactive. Silencing of CG14764 [DRSC05072] gave: firefly reporter light, replicate 1 = 2.29e5; firefly reporter light, replicate 2 = 2.25e5; Renilla control light, replicate 1 = 3.83e5; Renilla control light, replicate 2 = 4.72e5; inactive. Depletion of CG14764 [DRSC06498] came out at: firefly reporter light, replicate 1 = 1.40e6; firefly reporter light, replicate 2 = 8.29e5; Renilla control light, replicate 1 = 2.03e6; Renilla control light, replicate 2 = 1.69e6; inactive. CG14764 [DRSC06844] scored firefly reporter light, replicate 1 = 2.89e5; firefly reporter light, replicate 2 = 2.39e5; Renilla control light, replicate 1 = 1.76e6; Renilla control light, replicate 2 = 1.60e6; inactive.

With knock-down of Ste:CG33238 + Ste:CG33241 + Ste:CG33244 + 10 more [DRSC26515], the screen gave firefly reporter light, replicate 1 = 3.53e5; firefly reporter light, replicate 2 = 2.13e5; Renilla control light, replicate 1 = 4.46e5; Renilla control light, replicate 2 = 2.44e5; inactive. CG17350 [DRSC02611] showed firefly reporter light, replicate 1 = 1.22e5; firefly reporter light, replicate 2 = 1.34e5; Renilla control light, replicate 1 = 1.13e6; Renilla control light, replicate 2 = 1.06e6; inactive.

Sorted by “firefly reporter light, replicate 1” (highest first): 2 of the entries above.
CG14764 [DRSC05072] → firefly reporter light, replicate 1: 2.29e5; firefly reporter light, replicate 2: 2.25e5; Renilla control light, replicate 1: 3.83e5; Renilla control light, replicate 2: 4.72e5; outcome: inactive
CG10911 [DRSC06008] → firefly reporter light, replicate 1: 63698; firefly reporter light, replicate 2: 93449; Renilla control light, replicate 1: 1.46e6; Renilla control light, replicate 2: 1.46e6; outcome: inactive
